Source: PubChem BioAssay AID1259254 (NCATS, 2017)
The whole screen tested about 59,000 reagents; below is an unselected part. Of all reagents, about 1,550 (2.6%) got an active call. 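G2 share is only a proxy for re-replication; each gene was hit by three separate siRNAs, and active genes were retested.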 Raw values vary from plate to plate and are shown uncorrected. The numbers tell different reagents against one gene apart. Not given: the amount of reagent.

Screen: 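Genome-wide screen for genes that prevent DNA re-replication in cancer cells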 (primary screen)
System: human HCT116 colorectal cancer cells
Reagents: single siRNA against human genes
Timing: 3 days
Measurement: 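Imaged Hoechst DNA stain sorts each cell into a cycle phase by DNA amount; per plate, G2 fraction set to 0% for non-targeting and 100% for GMNN siRNA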
Scale: G2 robust z-score and G2 cells, % of GMNN control: higher = more G2 cells, more excess DNA replication; raw share of cells in G2: higher = larger share of cells with G2 DNA content
Hit rule: 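Active siRNAs have a G2 robust z of 5 or more median absolute deviations over the median, which in these data means about 38% or higher of GMNN control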

target,siRNA no.,G2 robust z-score,"G2 cells, % of GMNN control",raw share of cells in G2 (%),call
NT5C2,1,2.86,23.1,12.3,inactive
NT5C2,2,0.0596,3.39,5.32,inactive
NT5C2,3,1.34,12.4,7.22,inactive
DNPH1,1,-0.441,-0.134,4.93,inactive
DNPH1,2,-0.928,-3.56,2.67,inactive
DNPH1,3,1.24,11.7,7.56,inactive
HAUS8,1,-0.436,-0.1,4.04,inactive
HAUS8,2,0.595,7.16,5.24,inactive
HAUS8,3,0.768,8.37,5.58,inactive
PEX6,1,-0.718,-2.08,3.68,inactive
PEX6,2,2.23,18.7,9.12,inactive
PEX6,3,-0.882,-3.24,3.74,inactive
SSPOP,1,-0.822,-2.81,2.9,inactive
SSPOP,2,-0.0423,2.67,7.44,inactive
SSPOP,3,0.083,3.55,5.34,inactive
PEAK3,1,-0.137,2,4.67,inactive
PEAK3,2,4.64,35.6,18.8,inactive
PEAK3,3,2.44,20.2,12.3,inactive
RASGEF1B,1,-0.0831,2.38,4.63,inactive
RASGEF1B,2,0.0544,3.35,3.95,inactive
RASGEF1B,3,-0.119,2.13,3.81,inactive
OAS2,1,-0.25,1.21,5.66,inactive
OAS2,2,-0.91,-3.44,2.03,inactive
OAS2,3,0.391,5.72,7.07,inactive
ATP6V0C,1,1.36,12.5,9.49,inactive
ATP6V0C,2,0.447,6.11,7.41,inactive
ATP6V0C,3,-0.566,-1.02,3.36,inactive
TRMT44,1,-0.17,1.77,4.42,inactive
TRMT44,2,-0.946,-3.69,1.77,inactive
TRMT44,3,-0.0947,2.3,3.87,inactive
YIPF1,1,0.476,6.32,5.86,inactive
YIPF1,2,2.15,18.1,11.9,inactive
YIPF1,3,0.805,8.63,6.05,inactive
EXOC4,1,0.846,8.92,8.46,inactive
EXOC4,2,0.126,3.85,6.34,inactive
EXOC4,3,-0.333,0.622,2.86,inactive
ZNF746,1,0.32,5.22,4.98,inactive
ZNF746,2,2.52,20.7,10.2,inactive
ZNF746,3,-0.267,1.09,3.91,inactive
POLR1E,1,2.46,20.3,13.4,inactive
POLR1E,2,0.116,3.78,6.3,inactive
POLR1E,3,1.32,12.2,5.93,inactive
RBMS2,1,1.63,14.4,9.95,inactive
RBMS2,2,-0.418,0.0251,4.69,inactive
RBMS2,3,2.66,21.7,11.4,inactive
WNT5B,1,-0.605,-1.29,3.73,inactive
WNT5B,2,-0.583,-1.14,4.96,inactive
WNT5B,3,1.81,15.7,10.6,inactive
ARIH2OS,1,-0.488,-0.468,3.6,inactive
ARIH2OS,2,-0.217,1.44,3.76,inactive
ARIH2OS,3,0.0626,3.41,4.13,inactive
SULT1C3,1,4.96,37.9,18.1,inactive
SULT1C3,2,0.712,7.98,8.07,inactive
SULT1C3,3,-0.809,-2.72,4.73,inactive
BRD4,1,2.03,17.2,9.92,inactive
BRD4,2,1.92,16.4,9.5,inactive
BRD4,3,2.63,21.5,15,inactive
PRR23C,1,-0.486,-0.455,3.62,inactive
PRR23C,2,-0.516,-0.661,3.12,inactive
PRR23C,3,-1.06,-4.5,2.7,inactive
FBXO2,1,-0.492,-0.496,4.23,inactive
FBXO2,2,-0.143,1.96,4.79,inactive
FBXO2,3,0.571,6.99,5.74,inactive
REG3A,1,-0.441,-0.137,4.91,inactive
REG3A,2,-0.621,-1.4,3.67,inactive
REG3A,3,-0.654,-1.64,2.76,inactive
KRT71,1,-0.937,-3.62,2.64,inactive
KRT71,2,-0.15,1.91,3.9,inactive
KRT71,3,-1.01,-4.12,0.615,inactive
